Test results from article PMC6632053, “Incorporation of Putative Helix-Breaking Amino Acids in the Design of Novel Stapled Peptides: Exploring Biophysical and Cellular Permeability Properties” (Molecules, 2019).
Bridge positions count the residues as written; N and C are the ends. Square brackets hold non-standard residues; d marks the D form. Peptide text beside a SMILES is read from it. R8 = C=CCCCCCC[C@@](C)(N)C(=O)O; Cba = N[C@@H](CC1CCC1)C(=O)O; S5 = C=CCCC[C@](C)(N)C(=O)O

Test system: p53 responsive β-lactamase reporter in HCT116 cells
Assay: p53 beta-lactamase reporter gene cellular functional assay
Assay type: cell-based
Details: Table 1; cellular EC50/Mdm2 Kd
Description: HCT116 cells were stably transfected with a p53 responsive β-lactamase reporter and were seeded into a 384-well plate at a density of 8000 cells per well. Cells were maintained in McCoy’s 5A Medium with 10% fetal bovine serum (FBS), Blasticidin, and Penicillin/Streptomycin. The cells were incubated overnight, followed by removal of cell growth media and replacement with Opti-MEM either containing 0% FBS or 10% FBS. […] The final working concentration of DMSO was 0.5%. β-lactamase activity was detected using the ToxBLAzer Dual Screen (Invitrogen), as per the manufacturer’s instructions. Measurements were made using the Envision multiplate reader (Perkin–Elmer).

In order of rising “Ratio (fold-shift between the binding affinity and cellular activity)” value:
1. CC(=O)N[C@@H](CC(C)C)C(=O)N[C@H](C(=O)N[C@@H](Cc1ccccc1)C(=O)N[C@]1(C)CCCCCCC=CCCC[C@@](C)(C(=O)N[C@@H](CO)C(=O)N[C@@H](C)C(=O)N[C@@H](C)C(N)=O)NC(=O)[C@H](CC2CCC2)NC(=O)[C@H](CC(C)C)NC(=O)[C@H](CCC(N)=O)NC(=O)[C@H](C)NC(=O)[C@H](Cc2ccc(O)cc2)NC(=O)[C@H](CCC(=O)O)NC1=O)[C@@H](C)O [Peptide W7A] (Ac-LTF[R8]EYAQL[Cba][S5]SAA-NH2; staple 4-11)  2
2. CC(=O)N[C@@H](CC(C)C)C(=O)N[C@H](C(=O)N[C@@H](Cc1ccccc1)C(=O)N[C@]1(C)CCCCCCC=CCCC[C@@](C)(C(=O)N[C@@H](CO)C(=O)N[C@@H](C)C(=O)N[C@@H](C)C(N)=O)NC(=O)[C@H](CC2CCC2)NC(=O)[C@H](CC(C)C)NC(=O)[C@H](CCC(N)=O)NC(=O)[C@H](Cc2c[nH]c3ccccc23)NC(=O)[C@H](C)NC(=O)[C@H](CCC(=O)O)NC1=O)[C@@H](C)O [Peptide Y6A] (Ac-LTF[R8]EAWQL[Cba][S5]SAA-NH2; staple 4-11)  14
3. CC(=O)N[C@@H](CC(C)C)C(=O)N[C@H](C(=O)N[C@@H](Cc1ccccc1)C(=O)N[C@]1(C)CCCCCCC=CCCC[C@@](C)(C(=O)N[C@@H](C)C(=O)N[C@@H](C)C(=O)N[C@@H](C)C(N)=O)NC(=O)[C@H](CC2CCC2)NC(=O)[C@H](CC(C)C)NC(=O)[C@H](CCC(N)=O)NC(=O)[C@H](Cc2c[nH]c3ccccc23)NC(=O)[C@H](Cc2ccc(O)cc2)NC(=O)[C@H](CCC(=O)O)NC1=O)[C@@H](C)O [Peptide S12A] (Ac-LTF[R8]EYWQL[Cba][S5]AAA-NH2; staple 4-11)  17
4. CC(=O)N[C@@H](CC(C)C)C(=O)N[C@@H](C)C(=O)N[C@@H](Cc1ccccc1)C(=O)N[C@]1(C)CCCCCCC=CCCC[C@@](C)(C(=O)N[C@@H](CO)C(=O)N[C@@H](C)C(=O)N[C@@H](C)C(N)=O)NC(=O)[C@H](CC2CCC2)NC(=O)[C@H](CC(C)C)NC(=O)[C@H](CCC(N)=O)NC(=O)[C@H](Cc2c[nH]c3ccccc23)NC(=O)[C@H](Cc2ccc(O)cc2)NC(=O)[C@H](CCC(=O)O)NC1=O [Peptide T2A] (Ac-LAF[R8]EYWQL[Cba][S5]SAA-NH2; staple 4-11)  47

Same assay, conditions: Table 2; cellular EC50/Mdm2 Kd

In order of falling “Ratio (fold-shift between the binding affinity and cellular activity)” value:
1. CC(=O)N[C@@H](CCCCN=[N+]=[N-])C(=O)NCCC(=O)N[C@@H](CC(C)C)C(=O)N[C@H](C(=O)N[C@@H](Cc1ccccc1)C(=O)N[C@]1(C)CCCCCCC=CCCC[C@@](C)(C(=O)N2CCC[C@H]2C(=O)N[C@@H](C)C(=O)N[C@@H](C)C(N)=O)NC(=O)[C@H](CC2CCC2)NC(=O)[C@H](CCC(N)=O)NC(=O)[C@H](C)NC(=O)[C@H](Cc2c[nH]c3ccccc23)NC(=O)[C@H](Cc2ccc(O)cc2)NC(=O)[C@H](CCC(=O)O)NC1=O)[C@@H](C)O [Peptide S12P]  80
2. CC(=O)N[C@@H](CCCCN=[N+]=[N-])C(=O)NCCC(=O)N[C@@H](CC(C)C)C(=O)N[C@H](C(=O)N[C@@H](Cc1ccccc1)C(=O)N[C@]1(C)CCCCCCC=CCCC[C@@](C)(C(=O)N[C@@H](CO)C(=O)N[C@@H](C)C(=O)N[C@@H](C)C(N)=O)NC(=O)[C@H](CC2CCC2)NC(=O)[C@@H]2CCCN2C(=O)[C@H](C)NC(=O)[C@H](Cc2c[nH]c3ccccc23)NC(=O)[C@H](Cc2ccc(O)cc2)NC(=O)[C@H](CCC(=O)O)NC1=O)[C@@H](C)O [Peptide Q9P]  41
3. CC(=O)N[C@@H](CCCCN=[N+]=[N-])C(=O)NCCC(=O)N[C@@H](CC(C)C)C(=O)N[C@H](C(=O)N[C@@H](Cc1ccccc1)C(=O)N[C@]1(C)CCCCCCC=CCCC[C@@](C)(C(=O)NCC(=O)N[C@@H](C)C(=O)N[C@@H](C)C(N)=O)NC(=O)[C@H](CC2CCC2)NC(=O)[C@H](CCC(N)=O)NC(=O)[C@H](C)NC(=O)[C@H](Cc2c[nH]c3ccccc23)NC(=O)[C@H](Cc2ccc(O)cc2)NC(=O)[C@H](CCC(=O)O)NC1=O)[C@@H](C)O [Peptide S12G]  34

With `CC(=O)N[C@@H](CCCCN=[N+]=[N-])C(=O)NCCC(=O)N[C@@H](CC(C)C)C(=O)N[C@H](C(=O)N[C@@H](Cc1ccccc1)C(=O)N[C@]1(C)CCCCCCC=CCCC[C@@](C)(C(=O)N[C@@H](CO)C(=O)N[C@@H](C)C(=O)N[C@@H](C)C(N)=O)NC(=O)[C@H](CC2CCC2)NC(=O)[C@H](CCC(N)=O)N(C)C(=O)[C@H](C)NC(=O)[C@H](Cc2c[nH]c3ccccc23)NC(=O)[C@H](Cc2ccc(O)cc2)NC(=O)[C@H](CCC(=O)O)NC1=O)[C@@H](C)O` [Q9(N-methyl L-Gln)] the “Ratio (fold-shift between the binding affinity and cellular activity)” value was over 237.
